Experimental findings from the supplement of paper PMC4604168 (melanoma cell lines) are described below.

The list shows a part of the results. Single values are uncertain, as repeats are few or missing.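 The apoptosis fraction was the count of cleaved-PARP antibody-stained nuclei relative to all DNA-stained nuclei, imaged in 1,536-well plates. Screening doses were set so most cells survived, and baseline and induced cleaved-PARP levels vary greatly across cell lines.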

For this assay, the system named is MeWo. Description: cleaved PARP positive nuclei fraction relative to DMSO control; melanoma cells; higher = more apoptosis. To be noted: library dose: low library concentration; 72 h.
As to `NC1(c2ccc(-c3nc4ccn5c(=O)[nH]nc5c4cc3-c3ccccc3)cc2)CCC1` + O=C(Oc1ccc([N+](=O)[O-])cc1)N1CCC(C(O)(c2ccc3c(c2)OCO3)c2ccc3c(c2)OCO3)CC1 [JZL184] (first compound 0.4 µM, partner dose 1 µM), the “cleaved PARP positive nuclei fraction” value amounted to 132%.

As to `COc1ccc(C2=N[C@@H](c3ccc(Cl)cc3)[C@@H](c3ccc(Cl)cc3)N2C(=O)N2CCNC(=O)C2)c(OC(C)C)c1` [Nutlin-3] + C/C(O)=C(\C#N)C(=O)Nc1cc(Br)ccc1Br [LFM-A13] (first compound 0.1 µM, partner dose 2 µM), the “cleaved PARP positive nuclei fraction” value came to 75.8%.

For `O=C(/C=C/c1cccnc1)NCCCCC1CCN(C(=O)c2ccccc2)CC1` + Cc1cc(SCc2sc(-c3ccc(C(F)(F)F)c(F)c3)nc2C)ccc1OCC(=O)O [GW0742] (first compound 0.01 µM, partner dose 2 µM), the “cleaved PARP positive nuclei fraction” value amounted to 25.6%.

`C[As](C)SC[C@H](NC(=O)CC[C@H](N)C(=O)O)C(=O)NCC(=O)O` [Darinaparsin] + NC(=O)Nc1cc(-c2cccc(F)c2)sc1C(=O)N[C@H]1CCCNC1 [AZD7762] (first compound 0.4 µM, partner dose 0.02 µM): the “cleaved PARP positive nuclei fraction” value was determined as 44%.

As to `C[As](C)SC[C@H](NC(=O)CC[C@H](N)C(=O)O)C(=O)NCC(=O)O` [Darinaparsin] + C[C@@H]1CCN(C(=O)CC#N)C[C@@H]1N(C)c1ncnc2[nH]ccc12 [CP690550] (first compound 0.4 µM, partner dose 1 µM), the “cleaved PARP positive nuclei fraction” value amounted to 69.1%.

As for `C[C@]1(O)C[C@@H](c2nc(-c3ccc4ccc(-c5ccccc5)nc4c3)c3c(N)nccn32)C1` + C/C(O)=C(\C#N)C(=O)Nc1cc(Br)ccc1Br [LFM-A13] (first compound 0.4 µM, partner dose 2 µM), the “cleaved PARP positive nuclei fraction” value was 60.7%.

For `N.N.[Cl][Pt][Cl]` [cisplatin] + Cc1cc([N+](=O)[O-])ccc1NS(=O)(=O)c1cc(Cl)ccc1Cl [FH535] (first compound 1.6 µM, partner dose 1 µM), the “cleaved PARP positive nuclei fraction” value was found to be 204%.

Consider `Cn1cc(C2=C(c3cn(C4CCN(Cc5ccccn5)CC4)c4ccccc34)C(=O)NC2=O)c2ccccc21` [Enzastaurin] + O=C1NC(=O)/C(=C/c2ccc(-c3ccc(F)cc3O)o2)S1 [AS252424] (first compound 0.8 µM, partner dose 1 µM), for which the “cleaved PARP positive nuclei fraction” value was determined as 204%.

On to `C=CCNC1=C2C[C@@H](C)C[C@H](OC)[C@H](O)[C@@H](C)/C=C(\C)[C@H](OC(N)=O)[C@@H](OC)/C=C\C=C(/C)C(=O)NC(=CC1=O)C2=O` [Tanespimycin] + Cc1cc(SCc2sc(-c3ccc(C(F)(F)F)c(F)c3)nc2C)ccc1OCC(=O)O [GW0742] (first compound 0.002 µM, partner dose 2 µM), for which the “cleaved PARP positive nuclei fraction” value was 21.6%.

Take `O=C(O)c1ccc2c(c1)nc(Nc1cccc(Cl)c1)c1ccncc12` + O=C(Oc1ccc([N+](=O)[O-])cc1)N1CCC(C(O)(c2ccc3c(c2)OCO3)c2ccc3c(c2)OCO3)CC1 [JZL184] (first compound 0.4 µM, partner dose 1 µM): the “cleaved PARP positive nuclei fraction” value turned out to be 88.8%.

Consider `N.N.[Cl][Pt][Cl]` [cisplatin] + Cc1cc(N2CCOCC2)cc2[nH]c(-c3c(NC[C@@H](O)c4cccc(Cl)c4)cc[nH]c3=O)nc12 [BMS536924] (first compound 1.6 µM, partner dose 0.2 µM), for which the “cleaved PARP positive nuclei fraction” value was 108%.

As to `CC1(C)CCC(c2ccc(Cl)cc2)=C(CN2CCN(c3ccc(C(=O)NS(=O)(=O)c4ccc(N[C@H](CCN5CCOCC5)CSc5ccccc5)c(S(=O)(=O)C(F)(F)F)c4)cc3)CC2)C1` + O=C(Oc1ccc([N+](=O)[O-])cc1)N1CCC(C(O)(c2ccc3c(c2)OCO3)c2ccc3c(c2)OCO3)CC1 [JZL184] (first compound 0.4 µM, partner dose 1 µM), the “cleaved PARP positive nuclei fraction” value was 161%.

On to `Cc1cc(Nc2cc(N3CCN(C)CC3)nc(/C=C/c3ccccc3)n2)n[nH]1` + C/C(O)=C(\C#N)C(=O)Nc1cc(Br)ccc1Br [LFM-A13] (first compound 0.04 µM, partner dose 2 µM), for which the “cleaved PARP positive nuclei fraction” value was 21.3%.

Regarding `N.N.[Cl][Pt][Cl]` [cisplatin] + OCCn1cc(-c2cnc3nnn(Cc4ccc5ncccc5c4)c3n2)cn1 [PF04217903] (first compound 1.6 µM, partner dose 1 µM), the “cleaved PARP positive nuclei fraction” value stood at 107%.
